Results are given in words; binding and its absence hold for the method and conditions named. Some binding calls cover weakened binding; strength is not graded here.

Sequences of proteins named here, by UniProt entry; tags and fusion partners are left off. A change or cut given only in a name is not applied to a line headed by its entry. A line that says so, or that is headed by a name, gives the form on record, which may keep a tag or linker.
重组人VEGF (recombinant human VEGF, VEGF-A) (P15692, form named): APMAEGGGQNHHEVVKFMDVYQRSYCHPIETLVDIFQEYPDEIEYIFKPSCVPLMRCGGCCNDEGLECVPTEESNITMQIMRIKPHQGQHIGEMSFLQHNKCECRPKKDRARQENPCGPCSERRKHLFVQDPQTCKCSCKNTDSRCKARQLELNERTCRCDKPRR

Assay [1] has as its target 重组人VEGF (recombinant human VEGF, VEGF-A) (human) (UniProt P15692). In words: ELISA of clone supernatants on coated recombinant human VEGF, anti-M13-HRP.
For assay [2] the target is unchanged. In words: ELISA of clones of the secondary Fab library on human VEGF. For orientation: ELISA stands for enzyme-linked immunosorbent assay.
The target is the same in assay [3]. The experiment in a line: Friguet method (solution equilibrium with human VEGF, ELISA of free antibody on immobilised VEGF).
For assay [4] the target is unchanged. In words: dissociation of 125I-labelled antibody from HUVEC cells over 2 h at 37 C (legend: dissociation from VEGF).

B1: 3D7 Fab (原型分子3D7) (Fab, V domains shown)
VH: EVQLVESGGGLVQPGGSLRLSCAASGFNIKDTYIHWVRQAPGKGLEWVAYIAPSYGYTRYADSVKGRFTISADTSKNTAYLQMNSLRAEDTAVYYCSRSSDASYSYSAWGQGTLVTVSS
VL: DIVMTQSPSSLSASVGDRVTITCRASQFVGFYIHWYQQKPGKAPKLLIYAASERATGVPSRFSGSRSGTDFTLTISSLQPEDFATYYCQQWLNNPFTFGQGTKVEIKR
On to B1, for which, in assay [1], the binding entry is given as “binds”.

B2: 6B2 Fab (候选分子6B2) (Fab, V domains shown)
VH: EVQLVQSGGGVVQPRRSLRLSCAASGFDIYDDDIHWVRQAPGKGLEWVYIAPSYGYTRYADSVKGRFTVSRDNSKNTLYLQMNSLRAEDTSVYYCARSSDASYSYSAMDYWGQGTLVTVSS
VL: DIQMTQSPSSVSASIGDRVTITCRASQDASYSSAWYQQRPGKAPELLIYSAASYESGVPSRFSGSGSGTDFTLTISSLQAEDFATYYCQSSASPATFGQGTRLEIKR
Consider B2, for which the binding result in assay [2] and in assay [3] was “binds” each time.

B3: 全长6B2 (F6B2), full-length antibody (antibody, V domains shown)
VH: EVQLVQSGGGVVQPRRSLRLSCAASGFDIYDDDIHWVRQAPGKGLEWVYIAPSYGYTRYADSVKGRFTVSRDNSKNTLYLQMNSLRAEDTSVYYCARSSDASYSYSAMDYWGQGTLVTVSS
VL: DIQMTQSPSSVSASIGDRVTITCRASQDASYSSAWYQQRPGKAPELLIYSAASYESGVPSRFSGSGSGTDFTLTISSLQAEDFATYYCQSSASPATFGQGTRLEIKR
As to B3, in assay [4], the binding result is “binds”.
